# Results as given in patent US20190153406A1.
# Chains of the proteins cited; added tags and fusions are not shown.
# UniProt P35569: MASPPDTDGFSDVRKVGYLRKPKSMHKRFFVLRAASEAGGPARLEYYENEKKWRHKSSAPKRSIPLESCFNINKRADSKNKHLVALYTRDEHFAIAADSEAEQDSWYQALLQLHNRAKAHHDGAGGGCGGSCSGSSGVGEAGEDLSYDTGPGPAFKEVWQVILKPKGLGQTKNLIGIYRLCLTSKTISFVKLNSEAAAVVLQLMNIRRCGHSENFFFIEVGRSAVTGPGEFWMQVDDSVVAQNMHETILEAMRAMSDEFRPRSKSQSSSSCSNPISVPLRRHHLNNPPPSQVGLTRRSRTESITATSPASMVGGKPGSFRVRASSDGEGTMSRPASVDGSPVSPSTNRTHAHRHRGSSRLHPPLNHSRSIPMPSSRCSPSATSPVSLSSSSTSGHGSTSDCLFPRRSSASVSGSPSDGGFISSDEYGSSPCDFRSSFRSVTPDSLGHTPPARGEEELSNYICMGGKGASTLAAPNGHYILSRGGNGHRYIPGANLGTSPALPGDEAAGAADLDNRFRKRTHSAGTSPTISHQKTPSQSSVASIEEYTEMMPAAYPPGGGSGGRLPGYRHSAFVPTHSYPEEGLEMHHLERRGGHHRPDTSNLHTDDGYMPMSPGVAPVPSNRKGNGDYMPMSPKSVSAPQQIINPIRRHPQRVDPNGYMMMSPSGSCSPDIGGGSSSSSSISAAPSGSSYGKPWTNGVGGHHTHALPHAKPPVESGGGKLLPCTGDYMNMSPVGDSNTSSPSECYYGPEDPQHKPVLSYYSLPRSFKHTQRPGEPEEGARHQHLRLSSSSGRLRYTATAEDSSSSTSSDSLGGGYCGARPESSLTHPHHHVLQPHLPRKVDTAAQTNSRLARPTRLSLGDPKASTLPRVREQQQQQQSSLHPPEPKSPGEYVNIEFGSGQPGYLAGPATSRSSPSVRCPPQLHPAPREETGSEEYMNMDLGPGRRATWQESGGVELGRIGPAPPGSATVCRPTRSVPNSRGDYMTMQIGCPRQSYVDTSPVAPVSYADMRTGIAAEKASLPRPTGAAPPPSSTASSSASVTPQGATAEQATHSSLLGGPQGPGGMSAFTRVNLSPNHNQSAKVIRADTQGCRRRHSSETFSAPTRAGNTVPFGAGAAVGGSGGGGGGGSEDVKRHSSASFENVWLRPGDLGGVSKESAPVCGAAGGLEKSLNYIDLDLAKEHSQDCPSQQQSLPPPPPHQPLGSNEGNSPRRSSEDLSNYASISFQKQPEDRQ
# UniProt P35570: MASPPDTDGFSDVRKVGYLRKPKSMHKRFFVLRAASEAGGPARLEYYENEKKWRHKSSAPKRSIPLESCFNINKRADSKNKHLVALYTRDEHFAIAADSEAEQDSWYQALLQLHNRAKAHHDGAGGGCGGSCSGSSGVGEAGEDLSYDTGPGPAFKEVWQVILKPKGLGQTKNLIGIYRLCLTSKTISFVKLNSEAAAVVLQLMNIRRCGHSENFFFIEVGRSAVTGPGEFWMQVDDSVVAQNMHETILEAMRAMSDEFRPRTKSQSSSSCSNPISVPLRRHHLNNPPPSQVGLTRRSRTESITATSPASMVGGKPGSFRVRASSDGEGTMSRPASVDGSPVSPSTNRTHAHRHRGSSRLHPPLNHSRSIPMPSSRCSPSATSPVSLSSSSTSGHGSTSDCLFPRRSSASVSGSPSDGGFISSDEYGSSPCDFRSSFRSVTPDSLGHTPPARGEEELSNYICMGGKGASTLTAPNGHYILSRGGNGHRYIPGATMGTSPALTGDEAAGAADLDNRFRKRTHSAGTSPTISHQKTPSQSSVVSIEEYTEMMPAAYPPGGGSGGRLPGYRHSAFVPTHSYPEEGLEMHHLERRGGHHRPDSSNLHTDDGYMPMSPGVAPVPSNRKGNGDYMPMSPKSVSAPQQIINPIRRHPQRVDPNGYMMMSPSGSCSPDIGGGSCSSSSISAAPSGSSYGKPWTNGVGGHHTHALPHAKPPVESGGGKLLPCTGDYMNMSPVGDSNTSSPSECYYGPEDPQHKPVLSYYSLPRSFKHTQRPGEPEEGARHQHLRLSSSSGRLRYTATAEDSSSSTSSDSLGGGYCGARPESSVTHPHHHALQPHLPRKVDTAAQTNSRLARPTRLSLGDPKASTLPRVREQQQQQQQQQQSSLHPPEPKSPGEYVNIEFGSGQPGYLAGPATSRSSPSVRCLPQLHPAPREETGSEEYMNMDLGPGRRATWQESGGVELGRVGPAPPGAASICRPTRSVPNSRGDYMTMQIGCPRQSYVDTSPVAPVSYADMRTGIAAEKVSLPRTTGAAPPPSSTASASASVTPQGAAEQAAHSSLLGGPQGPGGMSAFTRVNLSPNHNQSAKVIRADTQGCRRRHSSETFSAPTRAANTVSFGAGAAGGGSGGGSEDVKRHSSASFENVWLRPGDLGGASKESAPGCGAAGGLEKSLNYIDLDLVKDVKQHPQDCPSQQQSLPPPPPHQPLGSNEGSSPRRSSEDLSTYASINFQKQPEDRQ
# Changes are numbered by the printed parent chain. Numbers in names are those of the source. These are yes or no findings as the source states them, for the method shown. For some of these results: In cells and extracts the contact can be indirect. Some binding calls cover weakened binding; strength is not graded here.
# B1: mouse wild-type MG53 (enzyme)
# chain: MSAAPGLLRQELSCPLCLQLFDAPVTAECGHSFCRACLIRVAGEPAADGTVACPCCQAPTRPQALSTNLQLSRLVEGLAQVPQGHCEEHLDPLSIYCEQDRTLVCGVCASLGSHRGHRLLPAAEAQARLKTQLPQQKMQLQEACMRKEKTVAVLEHQLVEVEETVRQFRGAVGEQLGKMRMFLAALESSLDREAERVRGDAGVALRRELSSLNSYLEQLRQMEKVLEEVADKPQTEFLMKFCLVTSRLQKILSESPPPARLDIQLPVISDDFKFQVWKKMFRALMPALEELTFDPSSAHPSLVVSSSGRRVECSDQKAPPAGEDTRQFDKAVAVVAQQLLSQGEHYWEVEVGDKPRWALGVMAADASRRGRLHAVPSQGLWLLGLRDGKILEAHVEAKEPRALRTPERPPARIGLYLSFADGVLAFYDASNPDVLTPIFSFHERLPGPVYPIFDVCWHDKGKNAQPLLLVGPEQEQA
# B2: mouse MG53 S255A mutant (enzyme)
# chain: B1 chain with S255A
# How the values were obtained:
# [1] = biological target: mouse insulin receptor substrate IRS1 (mouse) (UniProt P35569); experiment: co-immunoprecipitation from HEK293T cells: IP a-IRS1, Western blot for MG53
# [2] = biological target: mouse insulin receptor substrate IRS1 (mouse) (UniProt P35569); experiment: co-immunoprecipitation of IRS1 from HEK293T cells co-expressing both, Western Blot
# [3] = biological target: rat insulin receptor substrate IRS1 (rat) (UniProt P35570); experiment: SPR, Rat IRS1 immobilized (500 RU), MG53 in the mobile phase [upper panel]
binding [1],binding [2],binding [3],Binder
binds,binds,binds,B1
no binding,–,–,B2
